Results from PubChem BioAssay AID662 (National Center for Advancing Translational Sciences (NCATS), 2007).
The list shows a part of the results. These are further read-outs of the screen, such as a control signal, another cell line or another target. No call is given for them. The list favours compounds with an active or inconclusive main result. Words in brackets tell the shape of the fitted curve; partial curves, single points and poor fits give uncertain potencies.

assay: Cell signaling CRE-BLA (Fsk stim); conditions: CHO CRE-bla reporter (cAMP response element driving beta-lactamase), forskolin EC10, beta-lactamase ratio; measured here: 460 nm blue channel
In short: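 CRE-bla CHO cells stimulated with EC10 NKH 477 (water-soluble forskolin) and compound titrations, 3 h at 37C; beta-lactamase read with CCF4 after 2 h at room temperature. Activity from 460/530 nm emission ratio, AC50 values for positive or negative modulation.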

Row | SMILES | AC50
1 | O=C(CN1CCN(c2ccc(F)cc2)CC1)Nc1cccc(C(F)(F)F)c1 | 0.501 µM [falling, full curve]
2 | O=C(C1CCN(S(=O)(=O)N2CCOCC2)CC1)N1CCc2ccccc21 | 1 µM [falling, partial curve]
3 | Cn1c(=O)n(C)c2cc(NC(=O)CSc3nnc(-c4ccccc4O)n3-c3ccccc3)ccc21 | 10 µM [rising, single point]
4 | O=c1c(-c2ccccc2)nc2cnc(N3CCNCC3)nc2n1-c1ccccc1 | 7.94 µM [rising, partial curve]
5 | Nn1c(SCC(=O)Nc2ccc3c(c2)OCO3)nnc1C1CC1 | 12.6 µM [falling, single point]
6 | COc1cc2c(C#N)c(N3CCOCC3)nc(N)c2c(N)n1 | 10 µM [rising, partial curve]
7 | CCCC(=O)c1cc(O)c(O)cc1O | 1 µM [falling, full curve, poor fit]
8 | COc1ccc(-c2coc3cc(O)ccc3c2=O)cc1 | 7.94 µM [rising, partial curve, poor fit]
9 | Cc1cc(C)nc(SCCCn2c(=O)[nH]c3ccccc32)n1 | 10 µM [rising, partial curve]
10 | COC(=O)c1[nH]c2cccc(OC)c2c1NC(=O)CN1CC2(C)CC1CC(C)(C)C2 (stereo not drawn) | 1.58 µM [rising, partial curve]
11 | Nc1ncnc2c1ncn2CCOc1ccccc1 | 10 µM [rising, partial curve]
12 | CCCc1nc(N)nc2c1C(=O)CC(C)(C)C2 | 12.6 µM [rising, partial curve]
13 | CCNc1ncc2nc(CCc3ccccc3)c(=O)n(C3CC3)c2n1 | 10 µM [rising, partial curve]
14 | Cc1ccc(NC(=O)c2c(-c3c(F)cccc3Cl)noc2C)cc1F | 1.26 µM [falling, full curve]
15 | Cc1cccc2cc3c(N)c(C(=O)N4CCOCC4)sc3nc12 | 10 µM [rising, partial curve]
16 | COC(=O)c1ccc2c(c1)N(Cc1nc(-c3cccc(C)c3)oc1C)C(=O)C1CCCN21 (stereo not drawn) | 2.51 µM [rising, full curve]
17 | CC(C)NC(=O)N1CC[C@@]2(CCCN(C(=O)c3ccco3)C2)C1 | 12.6 µM [falling, single point]
18 | Cc1cccc(Cn2c(N(C)Cc3ccccc3)nc3c2c(=O)[nH]c(=O)n3C)c1 | 7.94 µM [rising, partial curve]
19 | CCN(CC)C(=O)c1cc2sc3ccccc3c2s1 | 20 µM [falling, single point]
20 | Cc1ccc(C)c(N2CCN(C(=O)CC3Sc4ccccc4NC3=O)CC2)c1 (stereo not drawn) | 12.6 µM [rising, partial curve]
21 | Brc1ccccc1-c1nnc2sc(-c3ccc4c(c3)OCCO4)nn12 | 25.1 µM [rising, single point]
22 | O=c1c2cnn(-c3ccc(F)cc3)c2ncn1Cc1cccnc1 | 12.6 µM [rising, single point]
23 | CS(=O)(=O)Nc1cccc(-c2nc(Nc3ccc(F)cc3)c3ccccc3n2)c1 | 20 µM [falling, single point]

Row | SMILES | AC50
24 | CCN1C(=O)CC(C(=O)Nc2ccc(F)cc2)SC1=Nc1cccc(OC)c1 (stereo not drawn) | 0.0398 µM [falling, partial curve]
25 | Cc1cc(N2CCOCC2)nc2cc(O)ccc12 | 12.6 µM [rising, single point]
26 | CC1(C)CC(=O)c2sc(NC(=O)CN3CCOCC3)nc2C1 | 12.6 µM [rising, single point]
27 | CCOC(=O)c1oc2ccc(S(=O)(=O)N3CCC(C)CC3)cc2c1C | 12.6 µM [rising, single point]
28 | CC(C)(C)C1CCc2onc(C(=O)N3CCOCC3)c2C1 (stereo not drawn) | 0.126 µM [rising, single point]
29 | O=C(OCCN1CCOCC1)C1(c2ccccc2)CCCCC1 | 31.6 µM [falling, single point]
30 | COCCn1c(=O)c(C)nc2cnc(OCc3ccccc3)nc21 | 12.6 µM [rising, partial curve]
31 | Cc1nn(-c2ccccc2)c2nc(N)c(C#N)c(-c3ccc(F)cc3)c12 | 10 µM [rising, partial curve]
32 | COc1ccc(CNc2cc(-c3cccnc3)ncn2)c(OC)c1 | 7.94 µM [rising, partial curve]
33 | CC1CN(C(=O)Cc2ccc(-c3ccccc3)cc2)CC(C)O1 (stereo not drawn) | 0.501 µM [falling, full curve, poor fit]
34 | COc1ccc(OC)c(-c2c[n+](=O)c3c(n2[O-])CCCC3)c1 | 1.26 µM [falling, partial curve]
35 | CCOC(=O)C1C(=O)NC(N2CCN(c3ccccc3)CC2)=NC1c1ccco1 (stereo not drawn) | 6.31 µM [falling, partial curve, poor fit]
36 | Cc1ccc2c(c1)c1ncnc(N3CCOCC3)c1n2C | 3.16 µM [rising, full curve]
37 | O=C(NCCc1c[nH]c2ccccc12)C1CCN(c2nnc(N3CCCC3=O)s2)CC1 | 0.00398 µM [falling, full curve, poor fit]
38 | COCCNC(=O)COc1cc(=O)n(C)c2ccccc12 | 7.94 µM [rising, single point]
39 | COCCn1c(=O)c(-c2cccs2)nc2cnc(N3CCNCC3)nc21 | 3.16 µM [rising, full curve]
40 | Cn1c(SCC(=O)Nc2cccc(NC(=O)c3cccs3)c2)nnc1-c1ccncc1 | 15.8 µM [falling, single point]
41 | CC(C)(C)n1nnnc1C(c1cccs1)N(Cc1ccccc1)Cc1ccco1 (stereo not drawn) | 12.6 µM [falling, single point]
42 | COc1c(C)cc(Br)cc1C(=O)Nc1cccc(-c2nc3ncccc3o2)c1 | 5.01 µM [rising, single point]
43 | Cn1c(/C(C#N)=C(\O)c2ccc(S(=O)(=O)N3CCCCC3)cc2)nc2ccccc21 | 0.1 µM [rising, full curve]
44 | COc1ccccc1N(CC(=O)Nc1ccccc1C(=O)NC(C)C)S(C)(=O)=O | 0.0126 µM [falling, partial curve]
45 | COc1ccc(C(=O)Nc2ccc(Cl)cn2)cc1Cl | 1.58 µM [rising, partial curve, poor fit]
46 | c1cncc(-c2nccc(NCc3cccs3)n2)c1 | 1.58 µM [rising, full curve]

Row | SMILES | AC50
47 | Cc1cccc(-n2nnc(C(=O)Nc3ccc(F)cc3)c2N)c1 | 0.794 µM [rising, partial curve]
48 | O=C(Nc1ccc(S(=O)(=O)N2CCc3ccccc3C2)cc1)C1CCCO1 (stereo not drawn) | 1 µM [falling, single point]
49 | CCOc1ccccc1CN1C(=O)c2ccccc2C1C(=O)NCC1CCCO1 (stereo not drawn) | 0.316 µM [falling, partial curve]
50 | CC(NC(=O)CSc1ncnc2nc[nH]c12)c1ccccc1 (stereo not drawn) | 0.794 µM [falling, full curve]
51 | CS(=O)(=O)N1CCC(C(=O)NCCN2CCN(Cc3ccccc3)CC2)CC1 | 25.1 µM [rising, single point]
52 | O=c1c(-c2cc(F)cc(F)c2)nc2cnc(N3CCNCC3)nc2n1C1CC1 | 3.98 µM [rising, partial curve]
53 | Nc1nc(N)c2sc3nc4c(cc3c2n1)CCC4 | 10 µM [rising, partial curve]
54 | COCCNC(C)C(=O)C12CC3CC(CC(C3)C1)C2 (stereo not drawn) | 20 µM [rising, single point]
55 | COC(=O)[C@@]1(Cc2ccc(OC)cc2)[C@H]2c3cc(C(=O)N4CCCC4)n(CCc4ccc(O)c(O)c4)c3C[C@H]2CN1C(=O)c1ccccc1 | 12.6 µM [rising, partial curve]
56 | O=c1oc(-c2cccs2)nc2sc3c(c12)CCCCC3 | 10 µM [rising, partial curve]
57 | c1coc(-c2nc(-c3ccncc3)no2)c1 | 1 µM [rising, full curve, poor fit]
58 | CCC(NS(=O)(=O)c1ccc(C)cc1)C(=O)N1CCC2(O)CCCCC2C1 (stereo not drawn) | 3.98 µM [falling, partial curve]
59 | Cc1cccc2nc(Cn3c(=O)n(CCC(=O)NCc4ccco4)c(=O)c4ccccc43)cc(=O)n12 | 0.316 µM [falling, partial curve]
60 | O=C(c1ccncc1)N1CCC2(CC1)CN(Cc1cc(C(F)(F)F)cc(C(F)(F)F)c1)C2 | 0.126 µM [falling, single point]
61 | COc1cc(OC)c2cc(-c3ccncc3)cnc2c1 | 3.16 µM [rising, full curve]
62 | c1ccc(-n2ncc3c(N4CCN(c5ccccn5)CC4)nc(N4CCCCC4)nc32)cc1 | 2.51 µM [falling, partial curve, poor fit]
63 | CCn1c(=O)c(C(=O)CN2CCOCC2)c(N)n(Cc2ccccc2)c1=O | 25.1 µM [falling, single point]
64 | CCOC(=O)c1c(C)n(C)c2ccc(OCC(O)CN3CCN(C)CC3)cc12 (stereo not drawn) | 12.6 µM [rising, partial curve]
65 | CCOc1ncccc1C(=O)OCC(=O)Nc1ncc(C(F)(F)F)cc1Cl | 5.01 µM [falling, single point]
66 | Cn1c(SCC(=O)Nc2ccccc2)nc(O)cc1=O | 0.00316 µM [falling, full curve, poor fit]
67 | Cc1cc(NC(=O)CSc2ccc3nnc(-c4cccc(F)c4)n3n2)no1 | 0.631 µM [falling, partial curve]
68 | Oc1c(C(Nc2nc3ccccc3s2)c2ccco2)ccc2cccnc12 (stereo not drawn) | 20 µM [rising, single point]

Retrieved one by one from above:
Row | SMILES | AC50
53 | Nc1nc(N)c2sc3nc4c(cc3c2n1)CCC4 | 10 µM [rising, partial curve]
3 | Cn1c(=O)n(C)c2cc(NC(=O)CSc3nnc(-c4ccccc4O)n3-c3ccccc3)ccc21 | 10 µM [rising, single point]
10 | COC(=O)c1[nH]c2cccc(OC)c2c1NC(=O)CN1CC2(C)CC1CC(C)(C)C2 (stereo not drawn) | 1.58 µM [rising, partial curve]
22 | O=c1c2cnn(-c3ccc(F)cc3)c2ncn1Cc1cccnc1 | 12.6 µM [rising, single point]
39 | COCCn1c(=O)c(-c2cccs2)nc2cnc(N3CCNCC3)nc21 | 3.16 µM [rising, full curve]
